# These are yes or no findings as the source states them, for the method shown. In cells and extracts the contact can be indirect. Some results given as binding are weak or reduced against the parent protein; the word gives no strength.
# Amino acid sequences for entries named in this document (tags omitted). Residues count along the entry.
# UniProt P31750: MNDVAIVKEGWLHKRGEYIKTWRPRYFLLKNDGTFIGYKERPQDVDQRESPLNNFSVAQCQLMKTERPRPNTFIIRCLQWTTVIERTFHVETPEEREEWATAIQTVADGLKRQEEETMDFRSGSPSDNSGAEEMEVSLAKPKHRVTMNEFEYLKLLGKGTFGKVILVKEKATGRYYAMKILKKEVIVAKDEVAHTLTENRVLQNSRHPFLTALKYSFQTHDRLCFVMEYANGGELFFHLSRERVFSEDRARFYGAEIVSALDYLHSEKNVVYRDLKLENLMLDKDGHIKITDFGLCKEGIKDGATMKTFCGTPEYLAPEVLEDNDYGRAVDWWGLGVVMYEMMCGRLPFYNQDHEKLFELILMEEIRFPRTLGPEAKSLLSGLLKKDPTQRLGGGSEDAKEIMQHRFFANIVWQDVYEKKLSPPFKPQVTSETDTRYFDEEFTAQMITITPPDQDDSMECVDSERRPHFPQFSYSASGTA
# UniProt Q03265, residues 44-553: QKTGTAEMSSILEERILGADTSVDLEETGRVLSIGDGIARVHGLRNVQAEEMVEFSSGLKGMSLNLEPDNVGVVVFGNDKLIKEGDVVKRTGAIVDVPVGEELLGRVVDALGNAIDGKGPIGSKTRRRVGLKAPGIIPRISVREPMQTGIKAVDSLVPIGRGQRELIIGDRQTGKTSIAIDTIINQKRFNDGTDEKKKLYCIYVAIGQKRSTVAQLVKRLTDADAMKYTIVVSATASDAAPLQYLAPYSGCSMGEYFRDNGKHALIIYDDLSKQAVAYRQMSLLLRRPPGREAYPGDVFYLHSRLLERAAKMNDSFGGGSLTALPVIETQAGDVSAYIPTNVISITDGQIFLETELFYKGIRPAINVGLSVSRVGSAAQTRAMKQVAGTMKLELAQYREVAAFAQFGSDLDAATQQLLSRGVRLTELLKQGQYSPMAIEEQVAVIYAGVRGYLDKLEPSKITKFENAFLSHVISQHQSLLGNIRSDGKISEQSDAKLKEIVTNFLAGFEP
# UniProt Q9CR84, residues 62-136: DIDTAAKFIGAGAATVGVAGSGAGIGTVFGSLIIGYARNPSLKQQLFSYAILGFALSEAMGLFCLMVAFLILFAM
# UniProt P56480, residues 47-529: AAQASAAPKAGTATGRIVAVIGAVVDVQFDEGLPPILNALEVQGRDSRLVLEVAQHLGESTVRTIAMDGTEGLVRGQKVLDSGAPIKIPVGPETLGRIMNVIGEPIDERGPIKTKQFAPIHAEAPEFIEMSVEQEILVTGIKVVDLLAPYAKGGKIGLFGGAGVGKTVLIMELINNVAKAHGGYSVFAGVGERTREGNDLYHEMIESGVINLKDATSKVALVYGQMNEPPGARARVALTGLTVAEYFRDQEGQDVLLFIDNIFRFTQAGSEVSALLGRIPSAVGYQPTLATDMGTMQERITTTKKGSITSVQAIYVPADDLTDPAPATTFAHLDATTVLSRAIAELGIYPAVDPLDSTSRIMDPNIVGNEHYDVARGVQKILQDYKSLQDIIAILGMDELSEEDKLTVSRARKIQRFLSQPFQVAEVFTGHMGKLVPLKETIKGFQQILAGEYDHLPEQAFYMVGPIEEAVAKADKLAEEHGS
# B1: ATP synthase subunit b1 (protein, UniProt Q9CQQ7 43-256)
# chain: PLPPLPEYGGKVRLGLIPEEFFQFLYPKTGVTGPYVLGTGLSLYFLSKEIYVITPETFSTISVVGLIVYVIKKYGASFGEFIDKLNEEKIAQLEEVKQSSMKQIQDAIDMEKAQQALVQKRHYLFDVQRNNIALALEVTYRERLHKAYKEVKNRLDYHISVQNMMRRKEEEHMIDWVEKHVVKSISVQQEKETIAKCIEDLKLLAKKAQAQPIM
# Target: AKT1 (mouse (endogenous in mouse heart)) (UniProt P31750)
# Experiment: co-IP; soluble mitochondrial proteins from isolated cardiac mitochondria of control and TAM-CAMDAKT mice, co-immunoprecipitated with AKT1, western blot of ATP synthase subunits (n = 3 each group)
row,Molecule,binding
1,ATP synthase subunit alpha (from UniProt Q03265 44-553),binds
2,ATP synthase subunit c (from UniProt Q9CR84 62-136),binds
3,ATP synthase subunit beta (from UniProt P56480 47-529),binds
4,B1,binds

# From publication PMC10612246
